From publication PMC9916828
No constants are given. Whether binding was seen depends on the method and setting. Binding seen in cells or lysates may run through a third protein. Some entries that bind do so weakly or less than the wild type.

Amino acid sequences for entries named in this document (tags omitted). Residues count along the entry.
UniProt P70168: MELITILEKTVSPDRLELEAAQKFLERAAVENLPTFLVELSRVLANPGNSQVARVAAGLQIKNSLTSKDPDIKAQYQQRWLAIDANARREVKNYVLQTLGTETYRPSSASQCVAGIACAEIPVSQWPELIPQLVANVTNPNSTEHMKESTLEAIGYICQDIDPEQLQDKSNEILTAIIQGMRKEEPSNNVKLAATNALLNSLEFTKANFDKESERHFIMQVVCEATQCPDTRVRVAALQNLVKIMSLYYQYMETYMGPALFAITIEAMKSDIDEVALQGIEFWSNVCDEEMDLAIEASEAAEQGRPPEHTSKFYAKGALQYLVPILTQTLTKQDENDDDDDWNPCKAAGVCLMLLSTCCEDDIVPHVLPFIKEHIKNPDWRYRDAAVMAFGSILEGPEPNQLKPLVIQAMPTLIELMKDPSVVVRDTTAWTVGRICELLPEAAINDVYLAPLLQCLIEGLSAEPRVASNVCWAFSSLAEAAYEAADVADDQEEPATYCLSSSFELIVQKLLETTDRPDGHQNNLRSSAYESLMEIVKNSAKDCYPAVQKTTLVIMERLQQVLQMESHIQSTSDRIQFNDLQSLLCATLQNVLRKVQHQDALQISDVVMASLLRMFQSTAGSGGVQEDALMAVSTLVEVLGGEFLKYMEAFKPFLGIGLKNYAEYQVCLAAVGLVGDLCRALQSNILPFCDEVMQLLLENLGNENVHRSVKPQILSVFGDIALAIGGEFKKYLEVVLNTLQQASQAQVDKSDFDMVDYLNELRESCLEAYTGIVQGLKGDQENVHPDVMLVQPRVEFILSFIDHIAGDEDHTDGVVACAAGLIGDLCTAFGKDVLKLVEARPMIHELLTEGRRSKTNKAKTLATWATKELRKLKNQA
UniProt P46096: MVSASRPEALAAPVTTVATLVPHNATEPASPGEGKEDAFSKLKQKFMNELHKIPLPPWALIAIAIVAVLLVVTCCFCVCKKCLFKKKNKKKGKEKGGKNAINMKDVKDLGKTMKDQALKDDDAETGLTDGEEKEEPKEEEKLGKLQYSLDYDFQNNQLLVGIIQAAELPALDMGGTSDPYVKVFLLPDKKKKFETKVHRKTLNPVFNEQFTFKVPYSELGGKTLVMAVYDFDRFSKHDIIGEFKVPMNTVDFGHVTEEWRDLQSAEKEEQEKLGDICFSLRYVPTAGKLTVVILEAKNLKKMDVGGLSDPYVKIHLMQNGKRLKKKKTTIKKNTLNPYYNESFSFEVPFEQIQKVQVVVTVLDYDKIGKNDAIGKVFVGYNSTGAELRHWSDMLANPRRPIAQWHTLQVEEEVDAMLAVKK
UniProt P37238: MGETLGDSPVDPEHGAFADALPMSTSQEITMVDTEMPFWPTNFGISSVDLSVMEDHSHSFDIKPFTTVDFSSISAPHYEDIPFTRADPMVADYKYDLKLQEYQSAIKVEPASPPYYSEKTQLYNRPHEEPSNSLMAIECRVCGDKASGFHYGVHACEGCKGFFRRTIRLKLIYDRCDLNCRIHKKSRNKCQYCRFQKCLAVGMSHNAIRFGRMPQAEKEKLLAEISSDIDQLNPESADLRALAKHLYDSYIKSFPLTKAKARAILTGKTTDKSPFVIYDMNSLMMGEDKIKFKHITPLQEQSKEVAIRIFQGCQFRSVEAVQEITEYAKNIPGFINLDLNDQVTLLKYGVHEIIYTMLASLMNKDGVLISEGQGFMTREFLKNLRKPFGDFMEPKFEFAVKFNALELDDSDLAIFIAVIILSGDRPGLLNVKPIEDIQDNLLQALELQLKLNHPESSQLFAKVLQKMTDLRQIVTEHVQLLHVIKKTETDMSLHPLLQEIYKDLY
UniProt P11627, residues 20-1260: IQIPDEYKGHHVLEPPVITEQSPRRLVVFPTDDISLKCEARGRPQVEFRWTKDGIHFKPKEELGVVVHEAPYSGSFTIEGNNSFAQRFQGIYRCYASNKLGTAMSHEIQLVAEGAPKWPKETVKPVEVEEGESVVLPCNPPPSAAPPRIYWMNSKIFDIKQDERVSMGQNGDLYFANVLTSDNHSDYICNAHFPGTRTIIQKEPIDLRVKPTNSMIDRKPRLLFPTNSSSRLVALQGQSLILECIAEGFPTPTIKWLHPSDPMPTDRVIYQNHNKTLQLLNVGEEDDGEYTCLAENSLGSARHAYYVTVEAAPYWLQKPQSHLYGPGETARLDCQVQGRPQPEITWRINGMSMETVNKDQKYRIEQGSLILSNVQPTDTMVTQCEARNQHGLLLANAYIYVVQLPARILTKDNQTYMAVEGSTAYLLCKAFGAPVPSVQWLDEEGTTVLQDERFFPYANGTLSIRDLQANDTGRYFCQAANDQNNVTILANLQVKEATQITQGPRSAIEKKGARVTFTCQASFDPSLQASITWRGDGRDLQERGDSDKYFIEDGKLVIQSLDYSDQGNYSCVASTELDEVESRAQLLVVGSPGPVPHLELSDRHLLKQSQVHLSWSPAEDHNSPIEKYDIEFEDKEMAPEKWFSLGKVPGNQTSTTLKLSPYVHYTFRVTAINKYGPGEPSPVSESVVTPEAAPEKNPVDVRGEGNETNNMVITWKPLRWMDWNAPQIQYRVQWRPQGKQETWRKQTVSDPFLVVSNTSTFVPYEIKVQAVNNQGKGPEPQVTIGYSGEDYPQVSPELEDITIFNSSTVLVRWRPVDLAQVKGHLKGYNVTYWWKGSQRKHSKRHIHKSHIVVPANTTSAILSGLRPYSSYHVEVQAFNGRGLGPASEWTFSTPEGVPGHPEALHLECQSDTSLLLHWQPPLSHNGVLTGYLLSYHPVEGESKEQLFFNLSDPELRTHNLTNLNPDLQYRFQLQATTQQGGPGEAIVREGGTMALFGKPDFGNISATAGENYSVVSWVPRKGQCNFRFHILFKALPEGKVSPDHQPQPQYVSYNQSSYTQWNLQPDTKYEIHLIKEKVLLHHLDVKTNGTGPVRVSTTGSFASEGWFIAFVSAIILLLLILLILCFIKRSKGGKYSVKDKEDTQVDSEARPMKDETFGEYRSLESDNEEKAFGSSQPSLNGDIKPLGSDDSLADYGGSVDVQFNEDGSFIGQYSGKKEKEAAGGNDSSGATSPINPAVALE

Experiments:
Assay in all cases: proximity ligation; fixed, permeabilised cultured mouse cortical (and cerebellar) neurons from wild-type or L1 mutant mice; mouse L1 antibody C-2 with goat or rabbit antibodies against the partner, or rabbit L1 antibody ab12399 with mouse antibodies; cells treated with vehicle, 1 µM aprotinin, 50 µg/mL L1 antibody 557 or siRNAs
[1] = target: T1, non-POU domain-containing octamer-binding protein (NonO), endogenous mouse (mouse (endogenous in cultured cortical neurons)) (UniProt Q99K48)
T1 sequence: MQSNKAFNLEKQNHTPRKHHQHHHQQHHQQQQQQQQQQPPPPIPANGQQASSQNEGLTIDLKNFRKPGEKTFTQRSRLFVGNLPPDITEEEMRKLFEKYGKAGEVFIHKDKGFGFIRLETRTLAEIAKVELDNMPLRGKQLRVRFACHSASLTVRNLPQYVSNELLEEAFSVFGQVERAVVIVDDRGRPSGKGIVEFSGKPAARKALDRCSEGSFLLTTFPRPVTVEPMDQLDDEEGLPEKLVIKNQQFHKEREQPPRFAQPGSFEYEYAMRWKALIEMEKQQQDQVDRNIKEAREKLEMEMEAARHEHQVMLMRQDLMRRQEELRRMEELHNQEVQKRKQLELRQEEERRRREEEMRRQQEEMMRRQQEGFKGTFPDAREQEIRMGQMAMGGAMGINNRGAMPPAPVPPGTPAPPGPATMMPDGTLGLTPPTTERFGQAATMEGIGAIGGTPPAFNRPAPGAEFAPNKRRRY

[2] = target: T2, splicing factor proline/glutamine-rich (SFPQ), endogenous mouse (mouse (endogenous in cultured cortical neurons)) (UniProt Q8VIJ6)
T2 sequence: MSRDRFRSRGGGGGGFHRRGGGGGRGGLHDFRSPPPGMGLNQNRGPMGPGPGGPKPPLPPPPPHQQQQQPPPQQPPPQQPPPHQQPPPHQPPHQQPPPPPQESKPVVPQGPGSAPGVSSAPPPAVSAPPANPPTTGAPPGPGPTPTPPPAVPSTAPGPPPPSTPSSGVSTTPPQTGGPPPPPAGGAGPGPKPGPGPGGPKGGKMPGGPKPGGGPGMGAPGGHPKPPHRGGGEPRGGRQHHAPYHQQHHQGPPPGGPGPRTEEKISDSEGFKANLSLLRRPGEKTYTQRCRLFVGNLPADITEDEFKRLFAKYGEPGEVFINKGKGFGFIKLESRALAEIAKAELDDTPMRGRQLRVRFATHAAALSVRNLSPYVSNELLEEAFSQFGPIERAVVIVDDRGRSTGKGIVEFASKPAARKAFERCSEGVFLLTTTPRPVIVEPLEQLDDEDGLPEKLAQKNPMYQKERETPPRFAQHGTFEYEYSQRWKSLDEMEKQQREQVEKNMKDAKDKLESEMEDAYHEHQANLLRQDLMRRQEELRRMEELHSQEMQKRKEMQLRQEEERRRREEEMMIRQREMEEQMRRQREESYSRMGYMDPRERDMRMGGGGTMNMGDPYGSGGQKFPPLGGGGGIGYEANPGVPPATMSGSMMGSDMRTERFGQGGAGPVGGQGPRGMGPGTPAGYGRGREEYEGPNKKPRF

[3] = target: importin β1 (impβ1), endogenous mouse (mouse (endogenous in cultured cortical neurons)) (UniProt P70168)
[4] = target: synaptotagmin 1 (SYT1), endogenous mouse (mouse (endogenous in cultured cortical neurons)) (UniProt P46096)
[5] = target: T3, paraspeckle component 1 (PSPC1), endogenous mouse (mouse (endogenous in cultured cortical neurons)) (UniProt Q8R326)
T3 sequence: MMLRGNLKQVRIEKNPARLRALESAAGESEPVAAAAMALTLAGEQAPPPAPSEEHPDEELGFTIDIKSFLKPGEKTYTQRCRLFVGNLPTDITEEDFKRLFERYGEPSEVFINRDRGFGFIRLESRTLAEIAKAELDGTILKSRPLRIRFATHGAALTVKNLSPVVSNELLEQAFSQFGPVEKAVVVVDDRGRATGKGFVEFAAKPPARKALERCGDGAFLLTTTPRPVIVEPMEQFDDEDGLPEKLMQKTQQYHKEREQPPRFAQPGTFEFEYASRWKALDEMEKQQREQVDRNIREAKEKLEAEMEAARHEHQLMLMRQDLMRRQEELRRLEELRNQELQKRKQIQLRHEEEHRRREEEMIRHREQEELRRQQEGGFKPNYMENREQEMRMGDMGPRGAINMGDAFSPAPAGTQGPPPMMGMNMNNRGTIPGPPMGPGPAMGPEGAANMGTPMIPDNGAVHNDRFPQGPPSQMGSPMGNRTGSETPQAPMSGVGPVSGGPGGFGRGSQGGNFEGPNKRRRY

[6] = target: peroxisome proliferator-activated receptor γ (PPARγ), endogenous mouse (mouse (endogenous in brain and cultured neurons)) (UniProt P37238)

Measured: binding

cell adhesion molecule L1, endogenous in wild-type mouse neurons (from UniProt P11627 20-1260)
binds: all assays above
